Reference: patent US20160272721A1
Results are given in words; binding and its absence hold for the method and conditions named. Binding seen in cells or lysates may run through a third protein. Some results given as binding are weak or reduced against the parent protein; the word gives no strength.

Protein sequences, listed by entry. Tags and fused reporters are not part of them. Residues count along the entry.
UniProt Q62432, residues 2-467: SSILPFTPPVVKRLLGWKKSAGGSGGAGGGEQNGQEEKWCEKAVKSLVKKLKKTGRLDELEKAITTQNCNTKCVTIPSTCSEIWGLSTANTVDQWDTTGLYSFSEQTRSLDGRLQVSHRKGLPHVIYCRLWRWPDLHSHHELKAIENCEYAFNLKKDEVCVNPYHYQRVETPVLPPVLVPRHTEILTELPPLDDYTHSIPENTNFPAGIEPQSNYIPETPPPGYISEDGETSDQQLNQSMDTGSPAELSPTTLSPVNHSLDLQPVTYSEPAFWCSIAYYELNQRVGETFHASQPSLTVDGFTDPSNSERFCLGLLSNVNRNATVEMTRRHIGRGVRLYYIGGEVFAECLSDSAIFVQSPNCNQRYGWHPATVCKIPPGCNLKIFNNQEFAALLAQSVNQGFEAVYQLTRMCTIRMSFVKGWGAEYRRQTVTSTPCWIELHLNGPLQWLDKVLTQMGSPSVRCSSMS

Target: T1, TGF-β type I receptor (in mouse embryonic fibroblasts) (mouse) (UniProt Q64729)
T1 sequence (looked up): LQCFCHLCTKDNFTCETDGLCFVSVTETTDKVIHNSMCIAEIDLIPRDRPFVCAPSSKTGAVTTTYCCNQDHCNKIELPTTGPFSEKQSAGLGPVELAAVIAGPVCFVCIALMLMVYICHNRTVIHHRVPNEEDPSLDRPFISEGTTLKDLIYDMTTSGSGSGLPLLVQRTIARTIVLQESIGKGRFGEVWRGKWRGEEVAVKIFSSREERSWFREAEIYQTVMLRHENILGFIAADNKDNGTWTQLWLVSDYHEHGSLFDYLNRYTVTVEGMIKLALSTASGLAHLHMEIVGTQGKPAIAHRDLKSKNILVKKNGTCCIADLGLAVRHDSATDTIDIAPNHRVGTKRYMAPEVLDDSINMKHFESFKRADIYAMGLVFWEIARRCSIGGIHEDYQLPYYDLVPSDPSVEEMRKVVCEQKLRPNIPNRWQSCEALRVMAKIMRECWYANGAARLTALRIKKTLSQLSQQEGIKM
Assay: co-immunoprecipitation of type I receptor with Smad2 from MEFs (FIG. 2e)

binding: binds
Substance: Smad2 (in mouse embryonic fibroblasts) (from UniProt Q62432 2-467)
